PubChem BioAssay AID504764 | Drosophila RNAi Screening Center, 2011

Screen: 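Genome-wide screen for regulators of Notch-driven gene expression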 (primary screen)
System: Drosophila Kc167 cells
Reagents: long dsRNA against Drosophila genes
Time to read-out: about 5 days (4 days dsRNA, then 24 h after transfection)
Conditions: transfection of constitutively active membrane-tethered Notch lacking the extracellular domain, read 24 h later
Measurement: 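Light from a Notch-responsive E(spl)m3 luciferase reporter under active Notch, with control-promoter and no-Notch reporter wells to normalise; raw counts from paired wells a and b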
Reading the numbers: induced reporter light, run 1, well a and induced reporter light, run 1, well b: higher = more light from the Notch target reporter with active Notch; control promoter light, run 1, well a and control promoter light, run 1, well b: higher = more light from the viral control promoter (cell number, transfection, viability); uninduced reporter light, run 1, well a: higher = more light from the Notch target reporter without active Notch
Active means: 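Hit if the duplicate-averaged log2 ratio of induced to control-promoter light gives a plate-wise z beyond ±2, or induced to uninduced beyond ±1.8; weak-control or discordant-duplicate wells dropped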
Calls: active = modifier hit (raised or lowered Notch signal); inactive = not a hit
In all, the deposit lists about 22,000 reagents; shown is a random part of those with a known target gene and a result. In the full data, 403 (1.9%) were called active. 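Unnormalised raw counts per well; ratio z-scores behind the hit calls and whether each hit raises or lowers signal are not deposited.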 Not given: the amount of reagent.

For Spx [DRSC18720], the values are induced reporter light, run 1, well a = 64660; induced reporter light, run 1, well b = 60240; control promoter light, run 1, well a = 1.03e5; control promoter light, run 1, well b = 1.20e5; uninduced reporter light, run 1, well a = 3515; inactive.
Depletion of CG5131 [DRSC02817] resulted in: induced reporter light, run 1, well a = 1.02e5; induced reporter light, run 1, well b = 1.57e5; control promoter light, run 1, well a = 1.43e5; control promoter light, run 1, well b = 1.36e5; uninduced reporter light, run 1, well a = 10785; inactive.
Akh [DRSC08138] showed induced reporter light, run 1, well a = 72865; induced reporter light, run 1, well b = 76500; control promoter light, run 1, well a = 1.18e5; control promoter light, run 1, well b = 96200; uninduced reporter light, run 1, well a = 5505; inactive.
After knock-down of Mp [DRSC10193], the record shows induced reporter light, run 1, well a = 1.19e5; induced reporter light, run 1, well b = 1.03e5; control promoter light, run 1, well a = 70910; control promoter light, run 1, well b = 25060; uninduced reporter light, run 1, well a = 9420; inactive.
Mp [DRSC11029] gave induced reporter light, run 1, well a = 2.20e5; induced reporter light, run 1, well b = 1.69e5; control promoter light, run 1, well a = 2.29e5; control promoter light, run 1, well b = 2.51e5; uninduced reporter light, run 1, well a = 13090; inactive.
Mp [DRSC11030] scored induced reporter light, run 1, well a = 2.66e5; induced reporter light, run 1, well b = 2.48e5; control promoter light, run 1, well a = 4.02e5; control promoter light, run 1, well b = 3.61e5; uninduced reporter light, run 1, well a = 14078; inactive.
Ldaf1 [DRSC17963] gave induced reporter light, run 1, well a = 1.77e5; induced reporter light, run 1, well b = 1.66e5; control promoter light, run 1, well a = 2.37e5; control promoter light, run 1, well b = 2.18e5; uninduced reporter light, run 1, well a = 12235; inactive.

Single entries from above:
Mp [DRSC11030], induced reporter light, run 1, well b → 2.48e5
Spx [DRSC18720], control promoter light, run 1, well a = 1.03e5

The listing continues.
CG10051 [DRSC05959] gave induced reporter light, run 1, well a = 81045; induced reporter light, run 1, well b = 86945; control promoter light, run 1, well a = 96380; control promoter light, run 1, well b = 91470; uninduced reporter light, run 1, well a = 5755; inactive.
After knock-down of Irbp [DRSC17007] the results were induced reporter light, run 1, well a = 88955; induced reporter light, run 1, well b = 93855; control promoter light, run 1, well a = 73495; control promoter light, run 1, well b = 54860; uninduced reporter light, run 1, well a = 4940; inactive.
After knock-down of san [DRSC07695], the screen gave induced reporter light, run 1, well a = 1.13e5; induced reporter light, run 1, well b = 91520; control promoter light, run 1, well a = 1.18e5; control promoter light, run 1, well b = 1.18e5; uninduced reporter light, run 1, well a = 11200; inactive.
For CG14780 [DRSC18566], the values are induced reporter light, run 1, well a = 1.57e5; induced reporter light, run 1, well b = 1.82e5; control promoter light, run 1, well a = 2.41e5; control promoter light, run 1, well b = 2.70e5; uninduced reporter light, run 1, well a = 11288; inactive.
With knock-down of tll [DRSC17085], the record shows induced reporter light, run 1, well a = 1.49e5; induced reporter light, run 1, well b = 1.72e5; control promoter light, run 1, well a = 2.17e5; control promoter light, run 1, well b = 1.81e5; uninduced reporter light, run 1, well a = 12570; inactive.
